Chains of the proteins cited; added tags and fusions are not shown.
UniProt P03372, whole entry, looked up: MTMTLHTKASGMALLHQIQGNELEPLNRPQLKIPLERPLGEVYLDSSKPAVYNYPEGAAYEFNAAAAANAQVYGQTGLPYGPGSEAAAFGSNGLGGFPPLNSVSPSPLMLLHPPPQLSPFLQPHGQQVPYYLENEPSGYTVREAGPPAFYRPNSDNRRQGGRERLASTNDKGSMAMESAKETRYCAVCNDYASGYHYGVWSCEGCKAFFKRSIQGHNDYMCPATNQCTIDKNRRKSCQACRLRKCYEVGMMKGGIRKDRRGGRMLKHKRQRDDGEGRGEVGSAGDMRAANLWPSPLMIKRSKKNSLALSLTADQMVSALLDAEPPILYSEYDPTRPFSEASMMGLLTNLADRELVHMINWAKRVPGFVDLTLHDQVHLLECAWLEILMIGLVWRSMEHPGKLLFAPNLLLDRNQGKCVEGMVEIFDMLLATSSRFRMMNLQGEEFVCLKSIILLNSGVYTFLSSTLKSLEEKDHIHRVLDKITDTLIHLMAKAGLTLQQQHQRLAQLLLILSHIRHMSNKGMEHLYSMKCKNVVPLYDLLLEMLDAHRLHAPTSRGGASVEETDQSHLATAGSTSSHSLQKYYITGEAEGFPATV

The list shows a part of the results. Shown are side measurements of this screen, not its main read-out; they come without a call.
What follows are compounds tested against Estrogen receptor (Homo sapiens) (UniProt P03372) (assay: blockers of coactivator recruitment to ERα – biochemical, LOPAC library, TR-FRET, primary screen (AID 694;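 further: receptor was agonist-bound with estradiol present during the assay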)). Details: TR-FRET ERalpha-coactivator peptide binding, at 15 µM, stronger effect = higher value.
Work on `CC1=C(C(=O)O)N2C(=O)[C@@H](NC(=O)C(N)C3=CCC=CC3)[C@H]2SC1` (stereo partly drawn) yielded an inhibition of 1.8%.
`COc1ccc2c(c1)c(CC(=O)O)c(C)n2Cc1ccc(Cl)cc1` showed an inhibition of 2.9%.
With `CN1C(C(=O)Nc2ccccn2)=C(O)c2ccccc2S1(=O)=O` the inhibition was 1.67%.
Compound `COCCOC(=O)C1=C(C)NC(C)=C(C(=O)OC(C)C)C1c1cccc([N+](=O)[O-])c1` (stereo not drawn) has an inhibition of -1.87%.
With `CN1CCc2cc(NC(=O)Nc3cccnc3)ccc21` the inhibition was -3.39%.
Compound `CC(C[N+](C)(C)C)OC(N)=O` (stereo not drawn) has an inhibition of 3.27%.
`CCCCC1C(=O)N(c2ccccc2)N(c2ccccc2)C1=O` was tested, and the inhibition was 5.28%.
`N=C(N)SCCN` gave an inhibition of 1.27%.
`c1ccc(CN2CCC3(CCCc4ccccc43)CC2)cc1` was tested, and the inhibition was 2.55%.
Work on `CC1(C)C(=O)N(CCN2CCC(C(=O)c3ccc(F)cc3)CC2)c2ccccc21` yielded an inhibition of 6.15%.
In the case of `OCC1NC[C@@H](O)C(O)[C@@H]1O` (stereo partly drawn), the inhibition is reported as 1.79%.
In the case of `CNC(=O)[C@H]1O[C@@H](n2cnc3c(NCc4cccc(I)c4)ncnc32)C(O)[C@H]1O` (stereo partly drawn), the inhibition is reported as 0.33%.
With `Cc1cccc(C2CN(C)CCc3c2cc(O)c(O)c3Cl)c1` (stereo not drawn) the inhibition was 3.74%.
Work on `CCCn1c(=O)c2[nH]c(-c3ccc(OCC(=O)NCCN)cc3)nc2n(CCC)c1=O` yielded an inhibition of 6.69%.
`O=C(OCCN1CCCCC1)c1c[nH]c2ccccc12` was tested, and the inhibition was -1.45%.
`[Li+]` gave an inhibition of 15.6%.
For `CCSC(N)=Nc1ccc(C(F)(F)F)cc1`, the inhibition was 0.15%.
Work on `OCc1ccc(-c2nn(Cc3ccccc3)c3ccccc23)o1` yielded an inhibition of 2.68%.
Work on `O=C(O)CCC/C=C\C[C@@H]1[C@@H](/C=C/[C@H](O)C2Cc3ccccc3C2)[C@@H](F)C[C@@H]1O` yielded an inhibition of -5.09%.
`CC(C)(Oc1ccc(C2CC2(Cl)Cl)cc1)C(=O)O` (stereo not drawn) was tested, and the inhibition was -2.45%.
Work on `Nc1nc(Cl)nc2c1ncn2[C@@H]1O[C@H](CO)[C@H](O)C1O` (stereo partly drawn) yielded an inhibition of 8.33%.
`CC(C)N(CCC(=O)c1ccc2ccccc2c1)Cc1ccccc1` was tested, and the inhibition was 1.45%.
In the case of `C[C@H]1c2cccc(O)c2C(O)=C2C(=O)[C@]3(O)C(O)=C(C(N)=O)C(=O)[C@@H](N(C)C)[C@@H]3[C@@H](O)[C@@H]21`, the inhibition is reported as 4.58%.
Compound `CCCCC[C@H](CC(=O)NO)C(=O)N[C@H](C(=O)N1CCC[C@H]1CO)C(C)C` has an inhibition of -6.87%.
In the case of `CC(=O)OC(C)C[N+](C)(C)C` (stereo not drawn), the inhibition is reported as -1.37%.
In the case of `CN(C)c1ccc(/C=C2\C(=O)Nc3ccccc32)cc1`, the inhibition is reported as -7.53%.
With `CNCCC(Oc1ccccc1C)c1ccccc1` (stereo not drawn) the inhibition was -1.6%.
Compound `COC1=C(OC)C(=O)c2ccccc2C1=O` has an inhibition of 6.29%.
`Cn1cnc2c(NC3CCCC3)ncnc21` showed an inhibition of 3.21%.
Work on `Clc1ccccc1C(c1ccccc1)(c1ccccc1)n1ccnc1` yielded an inhibition of 7.99%.
Compound `CCCC(C(=O)OCCN(CC)CC)(c1ccccc1)c1ccccc1` has an inhibition of 3.95%.
Compound `COc1cc(CC(=O)O)ccc1O` has an inhibition of 6.61%.
Work on `O=c1[nH]c2cc(Cl)ccc2c(O)c1-c1ccc(Oc2ccccc2)cc1` yielded an inhibition of 0.86%.
